Test results as given in patent US11065203B2, “Liposomal compositions and uses of same” (Technion Research & Development Foundation Limited, priority 2009, dated 2021).

B1: Q7Z7H5 (protein, UniProt Q7Z7H5 1-227, looked up)
chain: MAGVGAGPLRAMGRQALLLLALCATGAQGLYFHIGETEKRCFIEEIPDETMVIGNYRTQMWDKQKEVFLPSTPGLGMHVEVKDPDGKVVLSRQYGSEGRFTFTSHTPGDHQICLHSNSTRMALFAGGKLRVHLDIQVGEHANNYPEIAAKDKLTELQLRARQLLDQVEQIQKEQDYQRYREERFRLTSESTNQRVLWWSIAQTVILILTGIWQMRHLKSFFEAKKLV
modifications: full-length
B2: P18084 (protein, UniProt P18084 1-799, looked up)
chain: MPRAPAPLYACLLGLCALLPRLAGLNICTSGSATSCEECLLIHPKCAWCSKEDFGSPRSITSRCDLRANLVKNGCGGEIESPASSFHVLRSLPLSSKGSGSAGWDVIQMTPQEIAVNLRPGDKTTFQLQVRQVEDYPVDLYYLMDLSLSMKDDLDNIRSLGTKLAEEMRKLTSNFRLGFGSFVDKDISPFSYTAPRYQTNPCIGYKLFPNCVPSFGFRHLLPLTDRVDSFNEEVRKQRVSRNRDAPEGGFDAVLQAAVCKEKIGWRKDALHLLVFTTDDVPHIALDGKLGGLVQPHDGQCHLNEANEYTASNQMDYPSLALLGEKLAENNINLIFAVTKNHYMLYKNFTALIPGTTVEILDGDSKNIIQLIINAYNSIRSKVELSVWDQPEDLNLFFTATCQDGVSYPGQRKCEGLKIGDTASFEVSLEARSCPSRHTEHVFALRPVGFRDSLEVGVTYNCTCGCSVGLEPNSARCNGSGTYVCGLCECSPGYLGTRCECQDGENQSVYQNLCREAEGKPLCSGRGDCSCNQCSCFESEFGKIYGPFCECDNFSCARNKGVLCSGHGECHCGECKCHAGYIGDNCNCSTDISTCRGRDGQICSERGHCLCGQCQCTEPGAFGEMCEKCPTCPDACSTKRDCVECLLLHSGKPDNQTCHSLCRDEVITWVDTIVKDDQEAVLCFYKTAKDCVMMFTYVELPSGKSNLTVLREPECGNTPNAMTILLAVVGSILLVGLALLAIWKLLVTIHDRREFAKFQSERSRARYEMASNPLYRKPISTHTVDFTFNKFNKSYNGTVD
modifications: full-length
B3: Q12931 (protein, UniProt Q12931 1-704, looked up)
chain: MARELRALLLWGRRLRPLLRAPALAAVPGGKPILCPRRTTAQLGPRRNPAWSLQAGRLFSTQTAEDKEEPLHSIISSTESVQGSTSKHEFQAETKKLLDIVARSLYSEKEVFIRELISNASDALEKLRHKLVSDGQALPEMEIHLQTNAEKGTITIQDTGIGMTQEELVSNLGTIARSGSKAFLDALQNQAEASSKIIGQFGVGFYSAFMVADRVEVYSRSAAPGSLGYQWLSDGSGVFEIAEASGVRTGTKIIIHLKSDCKEFSSEARVRDVVTKYSNFVSFPLYLNGRRMNTLQAIWMMDPKDVREWQHEEFYRYVAQAHDKPRYTLHYKTDAPLNIRSIFYVPDMKPSMFDVSRELGSSVALYSRKVLIQTKATDILPKWLRFIRGVVDSEDIPLNLSRELLQESALIRKLRDVLQQRLIKFFIDQSKKDAEKYAKFFEDYGLFMREGIVTATEQEVKEDIAKLLRYESSALPSGQLTSLSEYASRMRAGTRNIYYLCAPNRHLAEHSPYYEAMKKKDTEVLFCFEQFDELTLLHLREFDKKKLISVETDIVVDHYKEEKFEDRSPAAECLSEKETEELMAWMRNVLGSRVTNVKVTLRLDTHPAMVTVLEMGAARHFLRMQQLAKTQEERAQLLQPTLEINPRHALIKKLNQLRASEPGLAQLLVDQIYENAMIAAGLVDDPRAMVGRLNELLVKALERH
modifications: full-length
B4: O60716 (protein, UniProt O60716 1-968, looked up)
chain: MDDSEVESTASILASVKEQEAQFEKLTRALEEERRHVSAQLERVRVSPQDANPLMANGTLTRRHQNGRFVGDADLERQKFSDLKLNGPQDHSHLLYSTIPRMQEPGQIVETYTEEDPEGAMSVVSVETSDDGTTRRTETTVKKVVKTVTTRTVQPVAMGPDGLPVDASSVSNNYIQTLGRDFRKNGNGGPGPYVGQAGTATLPRNFHYPPDGYSRHYEDGYPGGSDNYGSLSRVTRIEERYRPSMEGYRAPSRQDVYGPQPQVRVGGSSVDLHRFHPEPYGLEDDQRSMGYDDLDYGMMSDYGTARRTGTPSDPRRRLRSYEDMIGEEVPSDQYYWAPLAQHERGSLASLDSLRKGGPPPPNWRQPELPEVIAMLGFRLDAVKSNAAAYLQHLCYRNDKVKTDVRKLKGIPVLVGLLDHPKKEVHLGACGALKNISFGRDQDNKIAIKNCDGVPALVRLLRKARDMDLTEVITGTLWNLSSHDSIKMEIVDHALHALTDEVIIPHSGWEREPNEDCKPRHIEWESVLTNTAGCLRNVSSERSEARRKLRECDGLVDALIFIVQAEIGQKDSDSKLVENCVCLLRNLSYQVHREIPQAERYQEAAPNVANNTGPHAASCFGAKKGKDEWFSRGKKPIEDPANDTVDFPKRTSPARGYELLFQPEVVRIYISLLKESKTPAILEASAGAIQNLCAGRWTYGRYIRSALRQEKALSAIADLLTNEHERVVKAASGALRNLAVDARNKELIGKHAIPNLVKNLPGGQQNSSWNFSEDTVISILNTINEVIAENLEAAKKLRETQGIEKLVLINKSGNRSEKEVRAAALVLQTIWGYKELRKPLEKEGWKKSDFQVNLNNASRSQSSHSYDDSTLPLIDRNQKSDKKPDREEIQMSNMGSNTKSLDNNYSTPNERGDHNRTLDRSGDLGDMEPLKGTTPLMQDEGQESLEEELDVLVLDDEGGQVSYPSMQKI
modifications: full-length
B5: P51572 (protein, UniProt P51572 1-246, looked up)
chain: MSLQWTAVATFLYAEVFVVLLLCIPFISPKRWQKIFKSRLVELLVSYGNTFFVVLIVILVLLVIDAVREIRKYDDVTEKVNLQNNPGAMEHFHMKLFRAQRNLYIAGFSLLLSFLLRRLVTLISQQATLLASNEAFKKQAESASEAAKKYMEENDQLKKGAAVDGGKLDVGNAEVKLEEENRSLKADLQKLKDELASTKQKLEKAENQVLAMRKQSEGLTKEYDRLLEEHAKLQAAVDGPMDKKEE
modifications: full-length
B6: O60506 (protein, UniProt O60506 1-623, looked up)
chain: MATEHVNGNGTEEPMDTTSAVIHSENFQTLLDAGLPQKVAEKLDEIYVAGLVAHSDLDERAIEALKEFNEDGALAVLQQFKDSDLSHVQNKSAFLCGVMKTYRQREKQGTKVADSSKGPDEAKIKALLERTGYTLDVTTGQRKYGGPPPDSVYSGQQPSVGTEIFVGKIPRDLFEDELVPLFEKAGPIWDLRLMMDPLTGLNRGYAFVTFCTKEAAQEAVKLYNNHEIRSGKHIGVCISVANNRLFVGSIPKSKTKEQILEEFSKVTEGLTDVILYHQPDDKKKNRGFCFLEYEDHKTAAQARRRLMSGKVKVWGNVGTVEWADPIEDPDPEVMAKVKVLFVRNLANTVTEEILEKAFSQFGKLERVKKLKDYAFIHFDERDGAVKAMEEMNGKDLEGENIEIVFAKPPDQKRKERKAQRQAAKNQMYDDYYYYGPPHMPPPTRGRGRGGRGGYGYPPDYYGYEDYYDYYGYDYHNYRGGYEDPYYGYEDFQVGARGRGGRGARGAAPSRGRGAAPPRGRAGYSQRGGPGSARGVRGARGGAQQQRGRGVRGARGGRGGNVGGKRKADGYNQPDSKRRQTNNQNWGSQPIAQQPLQGGDHSGNYGYKSENQEFYQDTFGQQWK
modifications: full-length
B7: Q6P587 (protein, UniProt Q6P587 1-221, looked up)
chain: MAASRPLSRFWEWGKNIVCVGRNYADHVREMRSAVLSEPVLFLKPSTAYAPEGSPILMPAYTRNLHHELELGVVMGKRCRAVPEAAAMDYVGGYALCLDMTARDVQDECKKKGLPWTLAKSFTASCPVSAFVPKEKIPDPHKLKLWLKVNGELRQEGETSSMIFSIPYIISYVSKIITLEEGDIILTGTPKGVGPVKENDEIEAGIHGLVSMTFKVEKPEY
modifications: full-length
B8: O75964 (protein, UniProt O75964 1-103, looked up)
chain: MAQFVRNLVEKTPALVNAAVTYSKPRLATFWYYAKVELVPPTPAEIPRAIQSLKKIVNSAQTGSFKQLTVKEAVLNGLVATEVLMWFYVGEIIGKRGIIGYDV
modifications: full-length
B9: Q9Y2B0 (protein, UniProt Q9Y2B0 1-182, looked up)
chain: MKGWGWLALLLGALLGTAWARRSQDLHCGACRALVDELEWEIAQVDPKKTIQMGSFRINPDGSQSVVEVPYARSEAHLTELLEEICDRMKEYGEQIDPSTHRKNYVRVVGRNGESSELDLQGIRIDSDISGTLKFACESIVEEYEDELIEFFSREADNVKDKLCSKRTDLCDHALHISHDEL
modifications: full-length
B10: Q14554 (protein, UniProt Q14554 1-519, looked up)
chain: MARAGPAWLLLAIWVVLPSWLSSAKVSSLIERISDPKDLKKLLRTRNNVLVLYSKSEVAAENHLRLLSTVAQAVKGQGTICWVDCGDAESRKLCKKMKVDLSPKDKKVELFHYQDGAFHTEYNRAVTFKSIVAFLKDPKGPPLWEEDPGAKDVVHLDSEKDFRRLLKKEEKPLLIMFYAPWCSMCKRMMPHFQKAATQLRGHAVLAGMNVYSSEFENIKEEYSVRGFPTICYFEKGRFLFQYDNYGSTAEDIVEWLKNPQPPQPQVPETPWADEGGSVYHLTDEDFDQFVKEHSSVLVMFHAPWCGHCKKMKPEFEKAAEALHGEADSSGVLAAVDATVNKALAERFHISEFPTLKYFKNGEKYAVPVLRTKKKFLEWMQNPEAPPPPEPTWEEQQTSVLHLVGDNFRETLKKKKHTLVMFYAPWCPHCKKVIPHFTATADAFKDDRKIACAAVDCVKDKNQDLCQQEAVKGYPTFHYYHYGKFAEKYDSDRTELGFTNYIRALREGDHERLGKKKEEL
modifications: full-length

Test: Proteomics analysis (trypsin digest, LC-MS/MS) of hMSC ghosts and derived CDLs, conditioned or unconditioned by PC3 medium
Set-up: species or system human
Conditions: LC-MS/MS peak area per protein; for Ratio of expression Cond. CDLs/Cond. Ghosts: CDLs derived from conditioned hMSCs versus conditioned ghosts; for Ratio of expression Cond Ghosts/Ghosts: hMSC ghosts conditioned by PC3 medium versus unconditioned ghosts

| Molecule | Ratio of expression Cond. CDLs/Cond. Ghosts | Ratio of expression Cond Ghosts/Ghosts |
| --- | --- | --- |
| B1 | 5% | 100% |
| B2 | 5% | 100% |
| B3 | 4% | 100% |
| B4 | 4% | 220% |
| B5 | 4% | 100% |
| B6 | 5% | 100% |
| B7 | 5% | 100% |
| B8 | 5% | 100% |
| B9 | 4% | 100% |
| B10 | 5% | 100% |
